The results in this text go back to PMC9917868.

No constants are given. Whether binding was seen depends on the method and setting. In cells and extracts the contact can be indirect. Binding can be weak; no strength is given.

The experiment has as its target T1, proNRG2, endogenous in mouse whole brain (mouse (endogenous in whole brain)) (UniProt P56974).
T1 sequence: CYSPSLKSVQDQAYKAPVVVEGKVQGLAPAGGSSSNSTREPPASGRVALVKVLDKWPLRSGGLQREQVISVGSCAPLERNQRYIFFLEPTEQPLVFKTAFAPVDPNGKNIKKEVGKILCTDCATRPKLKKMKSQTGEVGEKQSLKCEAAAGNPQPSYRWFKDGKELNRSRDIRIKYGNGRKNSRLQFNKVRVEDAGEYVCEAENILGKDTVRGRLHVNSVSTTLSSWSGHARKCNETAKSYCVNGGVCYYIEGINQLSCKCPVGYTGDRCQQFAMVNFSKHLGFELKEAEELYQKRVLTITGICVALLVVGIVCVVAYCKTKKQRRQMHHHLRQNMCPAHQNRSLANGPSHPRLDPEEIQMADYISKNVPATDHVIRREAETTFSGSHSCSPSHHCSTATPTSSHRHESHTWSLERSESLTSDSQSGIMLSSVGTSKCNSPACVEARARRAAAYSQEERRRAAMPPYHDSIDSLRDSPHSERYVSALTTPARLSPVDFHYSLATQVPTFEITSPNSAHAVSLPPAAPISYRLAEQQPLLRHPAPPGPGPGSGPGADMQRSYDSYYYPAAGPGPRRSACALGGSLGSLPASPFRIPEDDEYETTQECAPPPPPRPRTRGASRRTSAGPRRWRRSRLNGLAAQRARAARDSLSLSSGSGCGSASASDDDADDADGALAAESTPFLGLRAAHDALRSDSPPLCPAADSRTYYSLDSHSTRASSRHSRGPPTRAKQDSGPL
The experiment in a line: co-IP; IP with a rabbit polyclonal antibody against the NRG2 extracellular domain (ABN1654) from mouse whole brain lysates; control normal rabbit IgG; Western blot.

For VAP, endogenous in mouse whole brain, the binding entry was “binds”.
